In the supplement of paper PMC8728848:
Some of the results follow.

Experiments:
Test in all cases: glycan array binding signal (z-score within array); higher = stronger binding
Settings in all cases: glycan notation: IUPAC condensed, linker removed
[1] = target: Gal(b1-4)GlcNAc(b1-2)Man(a1-3)[Gal(b1-4)GlcNAc(b1-2)Man(a1-6)]Man(b1-4)GlcNAc(b1-4)[Fuc(a1-6)]GlcNAc
Summary of the method: (§1)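 Columns mapping to the same glycan were averaged after glycan names were converted to IUPAC-condensed notation. The data come from 3228 arrays in the Consortium for Functional Glycomics database, limited to those with an available protein sequence. Binding is reported as a within-array Z-score averaged across arrays of one protein sequence and across linkers.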

[2] = target: Gal(b1-4)GlcNAc(b1-2)Man(a1-3)[Gal(b1-4)GlcNAc(b1-2)Man(a1-6)][Gal(b1-4)GlcNAc(b1-4)]Man(b1-4)GlcNAc(b1-4)[Fuc(a1-6)]GlcNAc
Summary of the method: as §1

[3] = target: Gal(b1-4)GlcNAc(b1-2)Man(a1-3)[Gal(b1-4)GlcNAc(b1-2)Man(a1-6)][GlcNAc(b1-4)]Man(b1-4)GlcNAc(b1-4)[Fuc(a1-6)]GlcNAc
Summary of the method: as §1

[4] = target: Gal(b1-4)GlcNAc(b1-2)Man(a1-3)[GlcNAc(b1-2)Man(a1-6)]Man(b1-4)GlcNAc(b1-4)GlcNAc
Summary of the method: as §1

[5] = target: Gal(b1-4)GlcNAc(b1-2)Man(a1-3)[GlcNAc(b1-4)][Gal(b1-4)GlcNAc(b1-2)Man(a1-6)]Man(b1-4)GlcNAc(b1-4)GlcNAc
Summary of the method: as §1

[6] = target: Gal(b1-4)GlcNAc(b1-2)Man(a1-3)[Man(a1-6)]Man(b1-4)GlcNAc(b1-4)GlcNAc
Summary of the method: as §1

[7] = target: Gal(b1-4)GlcNAc(b1-2)Man(a1-6)Man(b1-4)GlcNAc(b1-4)GlcNAc
Summary of the method: as §1

[8] = target: Gal(b1-4)GlcNAc(b1-2)Man(a1-6)[GlcNAc(b1-2)Man(a1-3)]Man(b1-4)GlcNAc(b1-4)GlcNAc
Summary of the method: as §1

[9] = target: Gal(b1-4)GlcNAc(b1-2)Man(a1-6)[Man(a1-3)]Man(b1-4)GlcNAc(b1-4)GlcNAc
Summary of the method: as §1

[10] = target: Gal(b1-4)GlcNAc(b1-2)[Gal(b1-4)GlcNAc(b1-4)]Man(a1-3)[Gal(b1-4)GlcNAc(b1-2)Man(a1-6)]Man(b1-4)GlcNAc(b1-4)GlcNAc
Summary of the method: as §1

[11] = target: Gal(b1-4)GlcNAc(b1-2)[Gal(b1-4)GlcNAc(b1-4)]Man(a1-3)[Gal(b1-4)GlcNAc(b1-2)[Gal(b1-4)GlcNAc(b1-6)]Man(a1-6)]Man(b1-4)GlcNAc(b1-4)GlcNAc
Summary of the method: as §1

[12] = target: Gal(b1-4)GlcNAc(b1-2)[Gal(b1-4)GlcNAc(b1-4)]Man(a1-3)[GlcNAc(b1-4)][Gal(b1-4)GlcNAc(b1-2)Man(a1-6)]Man(b1-4)GlcNAc(b1-4)GlcNAc
Summary of the method: as §1

[13] = target: Gal(b1-4)GlcNAc(b1-2)[Gal(b1-4)GlcNAc(b1-4)]Man(a1-3)[GlcNAc(b1-4)][Gal(b1-4)GlcNAc(b1-2)[Gal(b1-4)GlcNAc(b1-6)]Man(a1-6)]Man(b1-4)GlcNAc(b1-4)GlcNAc
Summary of the method: as §1

[14] = target: Gal(b1-4)GlcNAc(b1-2)[Gal(b1-4)GlcNAc(b1-6)]Man(a1-6)[Gal(b1-4)GlcNAc(b1-2)Man(a1-3)]Man(b1-4)GlcNAc(b1-4)GlcNAc
Summary of the method: as §1

[15] = target: Gal(b1-4)GlcNAc(b1-2)[Gal(b1-4)GlcNAc(b1-6)]Man(a1-6)[Gal(b1-4)GlcNAc(b1-2)Man(a1-3)]Man(b1-4)GlcNAc(b1-4)[Fuc(a1-6)]GlcNAc
Summary of the method: as §1

[16] = target: Gal(b1-4)GlcNAc(b1-2)[Gal(b1-4)GlcNAc(b1-6)]Man(a1-6)[GlcNAc(b1-4)][Gal(b1-4)GlcNAc(b1-2)Man(a1-3)]Man(b1-4)GlcNAc(b1-4)GlcNAc
Summary of the method: as §1

[17] = target: Gal(b1-4)GlcNAc(b1-2)[Gal(b1-4)GlcNAc(b1-6)]Man(a1-6)[GlcNAc(b1-4)][Gal(b1-4)GlcNAc(b1-2)[Gal(b1-4)GlcNAc(b1-4)]Man(a1-3)]Man(b1-4)GlcNAc(b1-4)[Fuc(a1-6)]GlcNAc
Summary of the method: as §1

[18] = target: Gal(b1-4)GlcNAc(b1-3)Gal(b1-3)GalNAc
Summary of the method: as §1

[19] = target: Gal(b1-4)GlcNAc(b1-3)Gal(b1-3)GlcNAc
Summary of the method: as §1

B1: GS7807Q-bfa-507-19-507 (Bacteroides fragilis) (protein)
chain: ASCNKFDDLNTNPDAATKVTAPMLATKLILNITQQGSAKNFVYHSMLSKQIAWSENASDEQYNLFGRTDFDGYTILTNCQKMVDAANEGDKDSYAALAKFMKAYKLFYKSLEVGDIPYSDALKGEEGVQKPKYDTQKEVMRQVLEDLEEAYTLFSSGSDFDGDPIFGGDTENWKKTVVAFELKVLTHLCKKDTDADLKVKERFARLVSSGSLMTSNADNFQLVYSNKAGQLYPFYYTQNKHSDYLMMSSVIIDNLKKFNDYRMFYYASPAKAQTDKGIKDSEWDAYLSIDPSDSYSNISVLYGKGEFCLANLRYTRVPEGEPLMRLSYAEQNFILAEGAVRGWISEDASTYYKKGIEASMNFIADNTPDKEEYTHGRTITQEYIQEYLAQPVIQLSGDKEKDLEMILLQRYLASFLQHPYDAYYDYRRTGYPVLPINPSTNLNTEKNKIPTRWMYPEAEFSYNPDNANEAVQRQYNGSDDVNKLMWILQ
[1]
  glycan array binding signal (z-score): -0.245
[2]
  glycan array binding signal (z-score): 0.294
[3]
  glycan array binding signal (z-score): -0.502
[4]
  glycan array binding signal (z-score): -0.596
[5]
  glycan array binding signal (z-score): -0.058
[6]
  glycan array binding signal (z-score): 0.768
[7]
  glycan array binding signal (z-score): 0.767
[8]
  glycan array binding signal (z-score): -0.286
[9]
  glycan array binding signal (z-score): -0.549
[10]
  glycan array binding signal (z-score): 2.14
[11]
  glycan array binding signal (z-score): -0.9
[12]
  glycan array binding signal (z-score): 0.445
[13]
  glycan array binding signal (z-score): 0.485
[14]
  glycan array binding signal (z-score): 0.33
[15]
  glycan array binding signal (z-score): 0.554
[16]
  glycan array binding signal (z-score): 0.995
[17]
  glycan array binding signal (z-score): -0.993
[18]
  glycan array binding signal (z-score): -0.405
[19]
  glycan array binding signal (z-score): -0.951
